Results are given in words; binding and its absence hold for the method and conditions named. In cells and extracts the contact can be indirect. Some entries that bind do so weakly or less than the wild type.
Target: SIRT1 HDAC (human (endogenous in HeLa)) (UniProt Q96EB6)
Assay: co-IP; immunoprecipitation with SIRT1 antibodies (Upstate) from HeLa cells, with and without ionizing radiation (10 Gy); blot for TPX2; beads without antibodies as control

Amino acid sequences for entries named in this document (tags omitted).
UniProt Q96EB6: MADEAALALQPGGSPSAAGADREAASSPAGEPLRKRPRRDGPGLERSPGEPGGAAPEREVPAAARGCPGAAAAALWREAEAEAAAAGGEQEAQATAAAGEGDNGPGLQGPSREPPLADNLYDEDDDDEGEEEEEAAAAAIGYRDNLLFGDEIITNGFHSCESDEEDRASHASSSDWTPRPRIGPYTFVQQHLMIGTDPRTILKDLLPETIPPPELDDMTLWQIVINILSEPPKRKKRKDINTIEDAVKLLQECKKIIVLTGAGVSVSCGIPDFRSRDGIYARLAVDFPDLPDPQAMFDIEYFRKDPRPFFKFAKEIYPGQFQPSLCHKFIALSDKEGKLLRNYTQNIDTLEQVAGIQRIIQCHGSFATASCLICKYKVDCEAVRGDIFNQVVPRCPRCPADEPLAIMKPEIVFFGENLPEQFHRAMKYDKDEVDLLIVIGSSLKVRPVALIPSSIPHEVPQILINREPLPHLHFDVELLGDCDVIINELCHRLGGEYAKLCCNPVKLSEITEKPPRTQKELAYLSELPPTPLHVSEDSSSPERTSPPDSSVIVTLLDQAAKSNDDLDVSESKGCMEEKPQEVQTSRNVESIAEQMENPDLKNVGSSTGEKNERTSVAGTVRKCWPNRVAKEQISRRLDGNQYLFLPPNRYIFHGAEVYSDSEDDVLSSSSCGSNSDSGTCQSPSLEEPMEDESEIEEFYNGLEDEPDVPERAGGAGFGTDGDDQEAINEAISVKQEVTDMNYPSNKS
UniProt Q9ULW0: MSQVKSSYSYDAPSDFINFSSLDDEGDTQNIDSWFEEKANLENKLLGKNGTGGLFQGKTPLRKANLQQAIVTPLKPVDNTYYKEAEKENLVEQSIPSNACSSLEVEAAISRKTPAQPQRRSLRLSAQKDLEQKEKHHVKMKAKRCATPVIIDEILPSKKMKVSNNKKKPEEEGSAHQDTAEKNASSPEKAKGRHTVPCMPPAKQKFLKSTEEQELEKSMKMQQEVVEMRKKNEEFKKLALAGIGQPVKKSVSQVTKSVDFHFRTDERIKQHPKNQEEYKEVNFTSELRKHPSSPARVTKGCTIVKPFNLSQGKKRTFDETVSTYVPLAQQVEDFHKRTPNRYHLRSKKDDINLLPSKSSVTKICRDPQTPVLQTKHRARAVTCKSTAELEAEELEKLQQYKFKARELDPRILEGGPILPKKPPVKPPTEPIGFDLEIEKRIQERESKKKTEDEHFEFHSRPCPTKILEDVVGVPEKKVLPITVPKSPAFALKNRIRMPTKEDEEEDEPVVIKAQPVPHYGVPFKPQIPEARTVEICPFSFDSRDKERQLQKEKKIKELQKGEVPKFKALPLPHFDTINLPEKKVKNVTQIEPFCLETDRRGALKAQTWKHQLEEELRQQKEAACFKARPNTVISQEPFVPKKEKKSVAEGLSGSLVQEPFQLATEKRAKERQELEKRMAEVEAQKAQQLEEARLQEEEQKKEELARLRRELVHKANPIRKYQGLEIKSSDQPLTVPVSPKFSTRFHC

targeting protein for Xenopus kinesin like protein 2 (TPX2) (from UniProt Q9ULW0 1-747)
binding: binds
